Test results taken from the supplement of paper PMC12542422.
Where a name gives a salt, the structure may show the parent alone. ± gives the standard deviation of the averaged measurements. The list shows a part of the results. These are raw signals, not scaled to a control.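 Across three biological replicates, HeLa cells were imaged for ribosome assembly using ENP1 staining (export block present or absent) or inducible tagged ribosomal protein reporters. Machine learning classified each cell's signal localization relative to DMSO controls. Hits exceeded the DMSO false-positive mean by five standard deviations and were then visually confirmed.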

Assays:
[1] = system: HeLa K (ENP1 immunofluorescence, +LMB); test: fraction of cells with nucleolar or nucleolar/nucleoplasmic ENP1 signal (MainHitrate); higher = more cells with nucleolar/nuclear readout signal (for ENP1 -LMB: less RNAPI inhibition; for +LMB ENP1 and RP reporters: stronger nuclear/nucleolar retention, i.e. ribosome biogenesis defect); conditions: concentration: 1 µM; treatment time: 6 h; ENP1 +LMB; leptomycin B: 20 nM, last 1.5 h
[2] = system: HeLa K (ENP1 immunofluorescence, no LMB); test: as above; conditions: concentration: 1 µM; treatment time: 6 h; ENP1 -LMB; leptomycin B: none
[3] = system: HeLa RPS2-YFP reporter; test: fraction of reporter-positive cells with nuclear (nucleolar or nucleolar/nucleoplasmic) RPS2-YFP (MainHitrate); higher = more cells with nucleolar/nuclear readout signal (for ENP1 -LMB: less RNAPI inhibition; for +LMB ENP1 and RP reporters: stronger nuclear/nucleolar retention, i.e. ribosome biogenesis defect); conditions: concentration: 1 µM; treatment time: 6 h
[4] = system: HeLa RPL29-GFP reporter; test: fraction of reporter-positive cells with nuclear (nucleolar or nucleolar/nucleoplasmic) RPL29-GFP (MainHitrate); higher = more cells with nucleolar/nuclear readout signal (for ENP1 -LMB: less RNAPI inhibition; for +LMB ENP1 and RP reporters: stronger nuclear/nucleolar retention, i.e. ribosome biogenesis defect); conditions: concentration: 1 µM; treatment time: 6 h

| SMILES | fraction [1] | fraction [2] | fraction of reporter-positive cells with nuclear [3] | fraction of reporter-positive cells with nuclear [4] |
| --- | --- | --- | --- | --- |
| CCCCCOC(=O)Nc1nc(=O)n([C@@H]2O[C@H](C)[C@@H](O)[C@H]2O)cc1F [Capecitabine (Xeloda)] | 0.0845 ± 0.057 | 0.9981 ± 0.0034 | 0.11 ± 0.059 | 0.217 ± 0.046 |
| NCCc1ccc(O)c(O)c1 [Dopamine hydrochloride (Inotropin)] | 0.15 ± 0.2 | 0.9948 ± 0.009 | 0.108 ± 0.072 | 0.229 ± 0.067 |
| CC=CC1=C(C(=O)O)N2C(=O)[C@@H](NC(=O)[C@H](N)c3ccc(O)cc3)[C@H]2SC1 [Cefprozil hydrate (Cefzil)] | 0.145 ± 0.23 | 0.992 ± 0.014 | 0.117 ± 0.064 | 0.222 ± 0.077 |
| CN1CC(=O)NC1=N [Creatinine] | 0.0493 ± 0.057 | 0.989 ± 0.019 | 0.0885 ± 0.081 | 0.245 ± 0.031 |
| CCS(=O)(=O)CCn1c([N+](=O)[O-])cnc1C [tinidazole] | 0.0601 ± 0.06 | 0.992 ± 0.013 | 0.119 ± 0.097 | 0.219 ± 0.083 |
| CC(C)(C#N)c1cc(Cn2cncn2)cc(C(C)(C)C#N)c1 [Anastrozole] | 0.0821 ± 0.057 | 0.9986 ± 0.0025 | 0.117 ± 0.078 | 0.196 ± 0.049 |
| CO[C@H]1/C=C/O[C@@]2(C)Oc3c(C)c(O)c4c(c3C2=O)C2=NC3(CCN(CC(C)C)CC3)NC2=C(NC(=O)/C(C)=C\C=C\[C@H](C)[C@H](O)[C@@H](C)[C@@H](O)[C@@H](C)[C@H](OC(C)=O)[C@@H]1C)C4=O [Rifabutin (Mycobutin)] | 0.129 ± 0.15 | 0.9985 ± 0.0026 | 0.105 ± 0.062 | 0.205 ± 0.064 |
| CCn1cc(C(=O)O)c(=O)c2cc(F)c(N3CCN(C)CC3)cc21 [Pefloxacin mesylate] | 0.0958 ± 0.13 | 0.991 ± 0.016 | 0.377 ± 0.41 | 0.399 ± 0.31 |
| CN(C/C=C/c1ccccc1)Cc1cccc2ccccc12 [Naftifine HCl] | 0.0435 ± 0.055 | 0.979 ± 0.037 | 0.131 ± 0.087 | 0.209 ± 0.067 |
| COc1c(C)c2c(c(O)c1C/C=C(\C)CCC(=O)OCCN1CCOCC1)C(=O)OC2 [Mycophenolate mofetil (CellCept)] | 0.0285 ± 0.039 | 0.729 ± 0.47 | 0.118 ± 0.079 | 0.358 ± 0.13 |
| Nc1cccc2c1C(=O)N(C1CCC(=O)NC1=O)C2=O (stereo not drawn) [Pomalidomide] | 0.076 ± 0.052 | 0.998 ± 0.0034 | 0.116 ± 0.086 | 0.206 ± 0.045 |
| N=C(N)c1ccc(OCCCCCOc2ccc(C(=N)N)cc2)cc1 [Pentamidine] | 0.13 ± 0.2 | 0.979 ± 0.037 | 0.125 ± 0.1 | 0.208 ± 0.065 |
| Cc1cc(C2CCCCC2)n(O)c(=O)c1 [Ciclopirox ethanolamine] | 0.0982 ± 0.15 | 0.987 ± 0.023 | 0.136 ± 0.13 | 0.207 ± 0.051 |
| CCC(=O)O[C@]1(C(=O)CCl)[C@@H](C)C[C@H]2[C@@H]3CCC4=CC(=O)C=C[C@]4(C)[C@@]3(F)[C@@H](O)C[C@@]21C [Clobetasol propionate] | 0.0434 ± 0.036 | 0.993 ± 0.012 | 0.0962 ± 0.089 | 0.234 ± 0.0027 |
| CC(C)NCC(O)COc1ccc(CCOCC2CC2)cc1 (stereo not drawn) [Betaxolol hydrochloride (Betoptic)] | 0.0599 ± 0.076 | 0.993 ± 0.012 | 0.102 ± 0.06 | 0.244 ± 0.087 |
| CC(C)c1nc(CN(C)C(=O)N[C@H](C(=O)N[C@@H](Cc2ccccc2)C[C@H](O)[C@H](Cc2ccccc2)NC(=O)OCc2cncs2)C(C)C)cs1 [Ritonavir] | 0.0677 ± 0.035 | 0.9969 ± 0.0054 | 0.105 ± 0.067 | 0.254 ± 0.1 |
| O=C(O)c1cc(=O)c2c(OCC(O)COc3cccc4oc(C(=O)O)cc(=O)c34)cccc2o1 [Disodium Cromoglycate] | 0.128 ± 0.2 | 0.99 ± 0.017 | 0.11 ± 0.093 | 0.217 ± 0.075 |
| Cc1cccc(C)c1OCC(C)N (stereo not drawn) [Mexiletine HCl] | 0.0697 ± 0.1 | 0.986 ± 0.025 | 0.123 ± 0.078 | 0.209 ± 0.062 |
| COc1ccc2c(c1)c(CC(=O)O)c(C)n2C(=O)c1ccc(Cl)cc1 [Indomethacin (Indocid, Indocin)] | 0.0782 ± 0.077 | 0.998 ± 0.0034 | 0.131 ± 0.048 | 0.192 ± 0.063 |
| Cc1nc2n(c(=O)c1CCN1CCC(c3noc4cc(F)ccc34)CC1)CCCC2O (stereo not drawn) [Paliperidone (Invega)] | 0.0932 ± 0.1 | 0.9979 ± 0.0036 | 0.11 ± 0.068 | 0.204 ± 0.078 |
| N=C(N)NC(=O)c1nc(Cl)c(N)nc1N [Amiloride hydrochloride (Midamor)] | 0.0718 ± 0.095 | 0.993 ± 0.013 | 0.136 ± 0.11 | 0.228 ± 0.13 |
| C[C@H](N)[C@H](O)c1cccc(O)c1 [Metaraminol Bitartrate] | 0.0852 ± 0.11 | 0.9943 ± 0.0098 | 0.161 ± 0.18 | 0.289 ± 0.27 |
| CS(=O)(=O)c1ccc(C2=C(c3ccccc3)C(=O)OC2)cc1 [Rofecoxib (Vioxx)] | 0.0851 ± 0.13 | 0.983 ± 0.029 | 0.11 ± 0.07 | 0.218 ± 0.075 |
| CN1CCN(c2c(F)cc3c(=O)c(C(=O)O)cn4c3c2OCN4C)CC1 [Marbofloxacin] | 0.0839 ± 0.027 | 0.9968 ± 0.0055 | 0.0814 ± 0.063 | 0.188 ± 0.026 |
| CN1CCN(CCCN2c3ccccc3Sc3ccc(C(F)(F)F)cc32)CC1 [Trifluoperazine 2HCl] | 0.0603 ± 0.079 | 0.99 ± 0.018 | 0.123 ± 0.098 | 0.216 ± 0.074 |
| Nc1nc(=O)c2c([nH]1)NC[C@H](CNc1ccc(C(=O)N[C@@H](CCC(=O)O)C(=O)O)cc1)N2C=O [Calcium levofolinate (Calcium Folinate)] | 0.0887 ± 0.11 | 0.996 ± 0.0069 | 0.127 ± 0.09 | 0.203 ± 0.092 |
| NC(CO)C(=O)NNCc1ccc(O)c(O)c1O (stereo not drawn) [Benserazide] | 0.16 ± 0.24 | 0.988 ± 0.021 | 0.113 ± 0.056 | 0.209 ± 0.072 |

Fetched by compound from the list above (2):

| SMILES | fraction [1] | fraction [2] | fraction of reporter-positive cells with nuclear [3] | fraction of reporter-positive cells with nuclear [4] |
| --- | --- | --- | --- | --- |
| O=C(O)c1cc(=O)c2c(OCC(O)COc3cccc4oc(C(=O)O)cc(=O)c34)cccc2o1 [Disodium Cromoglycate] | 0.128 ± 0.2 | 0.99 ± 0.017 | 0.11 ± 0.093 | 0.217 ± 0.075 |
| COc1ccc2c(c1)c(CC(=O)O)c(C)n2C(=O)c1ccc(Cl)cc1 [Indomethacin (Indocid, Indocin)] | 0.0782 ± 0.077 | 0.998 ± 0.0034 | 0.131 ± 0.048 | 0.192 ± 0.063 |
